# For part of its entries the source gives two or more results. They are shown here; other results are not. There may be further records. Results that share an entry do not match, cause unknown; dose, time, organism, isomer or construct need not be as stated for each record.
# Protein sequences, listed by entry. Tags and fused reporters are not part of them.
# UniProt P13569, whole entry: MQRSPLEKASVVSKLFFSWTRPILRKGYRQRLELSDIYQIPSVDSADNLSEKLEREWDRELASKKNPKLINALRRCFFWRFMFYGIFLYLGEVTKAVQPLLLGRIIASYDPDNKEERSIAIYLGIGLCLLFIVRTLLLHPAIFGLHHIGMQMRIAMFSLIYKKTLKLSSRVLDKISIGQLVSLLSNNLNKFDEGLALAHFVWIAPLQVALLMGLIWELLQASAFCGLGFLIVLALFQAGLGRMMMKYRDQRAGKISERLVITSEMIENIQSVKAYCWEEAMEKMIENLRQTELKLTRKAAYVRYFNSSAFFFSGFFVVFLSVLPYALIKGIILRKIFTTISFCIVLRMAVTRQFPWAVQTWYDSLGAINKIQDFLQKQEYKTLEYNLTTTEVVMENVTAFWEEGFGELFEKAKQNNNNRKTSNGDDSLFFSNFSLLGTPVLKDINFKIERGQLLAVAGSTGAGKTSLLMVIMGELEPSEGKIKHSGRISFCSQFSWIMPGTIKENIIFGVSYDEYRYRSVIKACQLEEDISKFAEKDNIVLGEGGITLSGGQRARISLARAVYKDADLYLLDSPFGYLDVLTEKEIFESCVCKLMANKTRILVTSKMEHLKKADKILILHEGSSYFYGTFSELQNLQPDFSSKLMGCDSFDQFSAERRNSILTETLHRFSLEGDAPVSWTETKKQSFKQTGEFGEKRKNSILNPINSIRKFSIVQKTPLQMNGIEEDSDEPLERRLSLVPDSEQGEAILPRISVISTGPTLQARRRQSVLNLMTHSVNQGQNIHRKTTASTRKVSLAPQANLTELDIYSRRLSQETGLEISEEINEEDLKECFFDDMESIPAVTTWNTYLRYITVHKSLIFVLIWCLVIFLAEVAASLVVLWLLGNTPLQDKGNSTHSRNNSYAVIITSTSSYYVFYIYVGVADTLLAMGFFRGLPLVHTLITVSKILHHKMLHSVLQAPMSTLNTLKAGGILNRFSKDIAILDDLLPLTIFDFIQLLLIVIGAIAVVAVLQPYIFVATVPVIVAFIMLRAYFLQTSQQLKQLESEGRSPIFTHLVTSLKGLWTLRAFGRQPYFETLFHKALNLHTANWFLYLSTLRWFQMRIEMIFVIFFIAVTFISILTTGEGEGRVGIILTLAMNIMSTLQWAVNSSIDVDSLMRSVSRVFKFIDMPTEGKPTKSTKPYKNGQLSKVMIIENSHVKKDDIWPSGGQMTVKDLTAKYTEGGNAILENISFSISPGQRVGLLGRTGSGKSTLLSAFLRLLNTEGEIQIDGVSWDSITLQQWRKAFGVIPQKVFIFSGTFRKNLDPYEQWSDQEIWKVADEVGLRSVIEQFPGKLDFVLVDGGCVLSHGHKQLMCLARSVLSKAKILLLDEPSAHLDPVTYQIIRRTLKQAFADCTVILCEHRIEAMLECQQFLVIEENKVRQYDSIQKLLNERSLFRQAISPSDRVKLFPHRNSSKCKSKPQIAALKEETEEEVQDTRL
# Biological target: human CFTR (Homo sapiens, UniProt P13569)
# Assay: Apical membrane Cl− current in CFTR-expressing FRT cells
# Conditions: CFTR activated by CPT-cAMP; no crofelemer pre-treatment
row,SMILES,maximal inhibition of CFTR Cl− current
1,O=C(CNc1ccc2ccccc2c1)N/N=C/c1cc(Br)c(O)c(Br)c1O [GlyH-101],approximately 100% and 100%
2,O=C(O)c1ccc(/C=C2\SC(=S)N(c3cccc(C(F)(F)F)c3)C2=O)cc1,approximately 100% and 100%

# Reference: patent US20120202876A1, “METHODS OF TREATING DISEASES WITH PROANTHOCYANIDIN OLIGOMERS SUCH AS CROFELEMER” (NAPO PHARMACEUTICALS, INC., priority 2009, published 2012)
